Laboratory results: PubChem BioAssay AID1224831 (NIAID, 2016)
Screen: 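Genes that support or restrain LPS-induced TNF-alpha reporter activity in macrophage-like cells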 (follow-up of hits). System: human THP-1 B5 monocytic leukaemia cells carrying a TNF promoter luciferase reporter, made macrophage-like with PMA. Knock-down reagent: single siRNA against human genes, 50 nM. Time to read-out: about 68 h of knock-down, then 4 h LPS. Conditions: LPS (Salmonella minnesota, TLR-grade) at 10 ng/ml for 4 h; PMA 5 ng/ml present during knock-down. Read-out: 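Firefly to renilla luciferase ratio of a TNF promoter reporter after 4 h LPS, scaled to plate median, turned into robust z-score, averaged over replicates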. Direction: TNF reporter z-score: higher = stronger LPS-induced TNF reporter signal; z-score, median over gene's siRNAs: higher = stronger TNF reporter signal across the gene's siRNAs. Hit rule: 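Active when the replicate mean z-score is about -1 or lower, or about 1.5 or higher; lowered and raised TNF reporter signal both count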. Calls: active = changed TNF reporter (either direction); inactive = little change.
The deposit covers about 3,500 reagents; shown is a part drawn at random. In the full data, 731 (21%) are marked active. 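Active means either lowered or raised reporter signal; the gene-median score did not drive the per-siRNA calls.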 A number with no mark means an inactive call. Reagent sequences are not shown.

After knock-down of OR52A5 [SID315489183], the screen gave TNF reporter z-score, replicate mean 0.79; z-score, median over gene's siRNAs 0.43. Depletion of OR52A5 [SID315489184] gave: TNF reporter z-score, replicate mean 0.06; z-score, median over gene's siRNAs 0.43. With knock-down of OR52A5 [SID315489185], the screen gave TNF reporter z-score, replicate mean 0.07; z-score, median over gene's siRNAs 0.43. Silencing of OR52A5 [SID315489186] came out at: TNF reporter z-score, replicate mean 1.42; z-score, median over gene's siRNAs 0.43. Silencing of OR52A5 [SID315489187] came out at: TNF reporter z-score, replicate mean 0.01; z-score, median over gene's siRNAs 0.43. Silencing of OR52A5 [SID315489188] came out at: TNF reporter z-score, replicate mean 1.11; z-score, median over gene's siRNAs 0.43.

Against CCDC121 [SID315486939], the values are TNF reporter z-score, replicate mean 0.23; z-score, median over gene's siRNAs 0.36. Depletion of CCDC121 [SID315486940] came out at: TNF reporter z-score, replicate mean -0.17; z-score, median over gene's siRNAs 0.36. After knock-down of CCDC121 [SID315486941], the record shows TNF reporter z-score, replicate mean 1.63 (active); z-score, median over gene's siRNAs 0.36. After knock-down of CCDC121 [SID315486942] the results were TNF reporter z-score, replicate mean -0.29; z-score, median over gene's siRNAs 0.36. CCDC121 [SID315486943] gave TNF reporter z-score, replicate mean 0.49; z-score, median over gene's siRNAs 0.36. Depletion of CCDC121 [SID315486944] came out at: TNF reporter z-score, replicate mean 1.33; z-score, median over gene's siRNAs 0.36.

Against TMED4 [SID315488232], the values are TNF reporter z-score, replicate mean -0.53; z-score, median over gene's siRNAs -0.635. For TMED4 [SID315488233] the deposit lists TNF reporter z-score, replicate mean 1.16; z-score, median over gene's siRNAs -0.635. Against TMED4 [SID315488234] the deposit lists TNF reporter z-score, replicate mean -1.25 (active); z-score, median over gene's siRNAs -0.635. Against TMED4 [SID315488235] the deposit lists TNF reporter z-score, replicate mean -0.74; z-score, median over gene's siRNAs -0.635. For TMED4 [SID315488236] the deposit lists TNF reporter z-score, replicate mean -1.31 (active); z-score, median over gene's siRNAs -0.635. Silencing of TMED4 [SID315488237] came out at: TNF reporter z-score, replicate mean 2.51 (active); z-score, median over gene's siRNAs -0.635.

CD209 [SID315485487] showed TNF reporter z-score, replicate mean -0.8; z-score, median over gene's siRNAs 0.35. CD209 [SID315485488] gave TNF reporter z-score, replicate mean 0.93; z-score, median over gene's siRNAs 0.35. Depletion of CD209 [SID315485489] resulted in: TNF reporter z-score, replicate mean -0.5; z-score, median over gene's siRNAs 0.35. CD209 [SID315485490] gave TNF reporter z-score, replicate mean 0.25; z-score, median over gene's siRNAs 0.35. Knock-down of CD209 [SID315485491] gave: TNF reporter z-score, replicate mean 0.45; z-score, median over gene's siRNAs 0.35. Silencing of CD209 [SID315485492] resulted in: TNF reporter z-score, replicate mean 1.74 (active); z-score, median over gene's siRNAs 0.35.

For OR4D2 [SID315487686] the deposit lists TNF reporter z-score, replicate mean 0.62; z-score, median over gene's siRNAs 0.435. Silencing of OR4D2 [SID315487687] came out at: TNF reporter z-score, replicate mean -0.4; z-score, median over gene's siRNAs 0.435. After knock-down of OR4D2 [SID315487688], the screen gave TNF reporter z-score, replicate mean 1.52 (active); z-score, median over gene's siRNAs 0.435. Depletion of OR4D2 [SID315487689] gave: TNF reporter z-score, replicate mean -0.23; z-score, median over gene's siRNAs 0.435. Against OR4D2 [SID315487690] the deposit lists TNF reporter z-score, replicate mean 0.25; z-score, median over gene's siRNAs 0.435. For OR4D2 [SID315487691] the deposit lists TNF reporter z-score, replicate mean 2.62 (active); z-score, median over gene's siRNAs 0.435.
